Reference: PubChem BioAssay AID651640 (Broad Institute, 2012)
Values joined by “and” are separate entries in the source; they are usually repeats but may differ in a detail not shown here. Equal entries are not always repeated. Hit rate of the full screen: of about 350,000 compounds, about 6,000 (1.7%) were called active. Inconclusive results, whose numbers are uncertain, are shown with a selection of clear calls. No stated cut-off is given here; in the data, active means CPE inhibition above about 20% (passing the limit was not always enough); inconclusive means no clear call, values can overlap the other calls; tested in BHK-21 cells. More than one record can exist for a structure, and the calls need not agree.

experiment: protection of cells from dengue 2 killing – plate reader, single concentration, primary screen (AID 651640); conditions: DENV2-infected cells, cytopathic effect rescue, at 9.99 µM, stronger effect = higher value;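 further: 0% = median of neutral control wells and 100% = median of positive control wells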

| Compound | CPE inhibition |
| --- | --- |
| CCCNC(=O)C[C@H]1CC[C@H]2[C@H](COc3ccc(NC(=O)Nc4ccccc4F)cc3C(=O)N2C)O1 | inconclusive: 38.9% |
| O=C(c1ccccn1)N1C[C@H]2[C@@H](c3ccccc31)[C@H](CO)N2C(=O)Nc1ccccc1 | inconclusive: 36.1% |
| CCCCCn1nc(C(=O)N2CCc3ccccc32)c2ccccc2c1=O | inconclusive: 20.5% |
| O=C(COC(=O)/C=C/c1ccccc1)Nc1ccccc1Br | inconclusive: 37% |
| CCCN(C)C[C@@H]1OCCCC[C@@H](C)Oc2ccc(NS(=O)(=O)c3ccc(F)cc3)cc2C(=O)N([C@H](C)CO)C[C@@H]1C | inconclusive: 26.9% |
| C[C@H]1CCCCO[C@H](CN(C)C(=O)Nc2ccc(F)cc2)[C@@H](C)CN([C@@H](C)CO)C(=O)c2cc(NS(=O)(=O)c3cccs3)ccc2O1 | active: 26.6% |
| C[C@H](CO)N1C[C@H](C)[C@H](CN(C)C(=O)Cc2ccccc2)Oc2ncc(-c3ccc(F)cc3)cc2C1=O | inconclusive: 23.9% |
| O=C(Nc1nnc(-c2ccncc2)o1)c1ccccc1 | inactive: -2.35% |
| COc1ccc(N(C)C(=O)c2cn(CC(C)C)c(=O)c3cc(OC)c(OC)cc23)cc1 | inconclusive: 31.9% |
| O=C(COC(=O)c1ccccc1NCCO)Nc1ccc(S(=O)(=O)NC2=NCCCCC2)cc1 | inconclusive: 20.4% |
| CCCN1C2CCCC1CC(NC(=O)c1ccccc1Br)C2 (configuration not stated) | inconclusive: 28.9% |
| CC(CCCN(C)C)C(Cc1ccccc1)c1ccccc1 (configuration not stated) | inactive: -5.99% |
| O=[N+]([O-])c1ccc(COP(=O)(O)OCc2ccc([N+](=O)[O-])cc2)cc1 | inconclusive: 44.7% |
| CCN(CC)C(=O)Oc1nnc(SC(C)C)n1-c1ccc(Cl)cc1 | inactive: -3.45% |
| C[C@@H]1CN([C@@H](C)CO)S(=O)(=O)c2ccc(C#Cc3ccncc3)cc2O[C@@H]1CN(C)C(=O)C1CCOCC1 | inconclusive: 55% |
| COc1ccc(CN(C)C[C@@H]2Oc3ccc(NS(=O)(=O)c4cn(C)cn4)cc3C(=O)N([C@@H](C)CO)C[C@H]2C)cc1 | inconclusive: 27% |
| COc1ccc(CNC(=O)C[C@@H]2C=C[C@H](NC(=O)c3ccc4c(c3)OCO4)[C@@H](CO)O2)cc1 | inconclusive: 22.3% |
| N#C/C(=C\c1c[nH]c2ccccc12)C(=O)NC1CCCC1 | inconclusive: 44.4% |
| C[C@@H]1CN([C@H](C)CO)C(=O)c2cc(NC(=O)Nc3cccc4ccccc34)ccc2O[C@@H](C)CCCCO[C@@H]1CN(C)S(=O)(=O)c1cccs1 | inconclusive: 39.1% |
| O=C1c2ccccc2C(=O)N1CC(=O)N1c2ccccc2Sc2ccc(C(F)(F)F)cc21 | active: 35.5% |
| COCCn1c(C)cc(C(=O)COC(=O)c2ccccc2Br)c1C | inactive: -0.686% |
| Cn1c(N)c(C(=O)COC(=O)COc2ccc3ccccc3c2)c(=O)n(C)c1=O | inconclusive: 21.8% |
| COc1ccc(SCCc2nnc(-c3ccccc3)o2)cc1 | inactive: -3.9% |

Individual results from above.
CCCCCn1nc(C(=O)N2CCc3ccccc32)c2ccccc2c1=O | CPE inhibition: inconclusive: 20.5%
O=C(COC(=O)/C=C/c1ccccc1)Nc1ccccc1Br | CPE inhibition: inconclusive: 37%

Later entries

| Compound | CPE inhibition |
| --- | --- |
| CC1C=NC(S(=O)(=O)N2CC[C@@H]3[C@H]2c2cc(-c4ccccc4F)ccc2N(C)[C@H]3CO)=N1 (some centres not stated) | inconclusive: 50.3% |
| C[C@H]1CN([C@@H](C)CO)C(=O)Cc2cc(NC(=O)NC3CCCCC3)ccc2O[C@H]1CN(C)S(=O)(=O)c1ccc(F)cc1 | inactive: -9.06% |
| C[C@@H]1CN([C@@H](C)CO)C(=O)c2cc(NS(=O)(=O)c3cccs3)ccc2O[C@@H]1CN(C)Cc1ccc(-c2ccccc2)cc1 | inactive: -2% |
| COc1ccc(-c2nnc(N3CCOCC3)c3ccccc23)cc1 | inconclusive: 34.4% |
| O=C(C1CCCCC1)N1CC2(C1)[C@H](c1ccccc1)[C@@H](CO)N2Cc1nccs1 | inactive: 10.2% |
| Nc1nonc1OCCN1CCN(c2ccc([N+](=O)[O-])c3cccnc23)CC1 | inconclusive: 26.4% |
| Cc1ccsc1C(=O)N1CCN(c2ncccn2)CC1 | inconclusive: 66.3% |
| CC1(C)CC[C@]2(C(=O)O[C@@H]3O[C@H](CO)[C@@H](O)[C@H](O)[C@H]3O)CC[C@]3(C)C(=CCC4[C@@]5(C)CC[C@H](O[C@@H]6O[C@H](C(=O)O)[C@@H](O[C@H]7OC[C@@H](O)[C@@H](O)[C@@H]7O)[C@H](O)[C@H]6O)C(C)(C)C5CC[C@]43C)[C@@H]2C1 (some centres not stated) | active: 80.9% |
| C[C@@H]1CN([C@H](C)CO)C(=O)Cc2cc(NC(=O)C3CCCCC3)ccc2O[C@@H]1CN(C)S(=O)(=O)c1ccc(F)cc1 | inconclusive: 47.6% |
| C[C@@H]1CN([C@H](C)CO)C(=O)Cc2cc(NC(=O)Cn3cnnn3)ccc2O[C@H]1CN(C)C(=O)Nc1ccc(C(F)(F)F)cc1 | active: 30.4% |
| COc1ccc(NC(=O)N(C)C[C@@H]2Oc3ccc(NC(=O)Nc4ccccc4)cc3CC(=O)N([C@@H](C)CO)C[C@@H]2C)cc1 | active: 25.4% |
| Cc1ccccc1-c1cccc([C@@H]2C[C@H]3C(CN2)CON3C)c1 (some centres not stated) | inconclusive: 26.7% |
| CC[C@H](C)[C@@H](CNC)NC[C@@H](Cc1ccc(O)cc1)NCC(C)(C)C | inconclusive: 53.4% |
| O=C(COC(=O)CCc1nc2ccccc2s1)NC(=O)NCc1ccco1 | inactive: -4% |
| CC(=O)N[C@H]1C=C[C@H](CC(=O)NCc2ccc(Cl)cc2)O[C@H]1CO | active: 32% |
| COc1cccc(-c2ccc([C@H]3[C@H](CO)N4C(=O)CN(C(=O)c5ccncc5)C[C@@H]34)cc2)c1 | inactive: 8.65% |
| CC(C)(C)c1ccc(C(=O)N/C(=C\c2ccco2)C(=O)Nc2ccccc2C(=O)O)cc1 | inconclusive: 31.7% |
| COc1ccccc1N(CC(=O)N1CCN(c2ccccc2)CC1)S(=O)(=O)c1ccc(C)cc1 | inconclusive: 23.5% |
| COc1cccc2cc(/C(C)=N/NC(=O)c3ccco3)oc12 | inconclusive: 50.5% |
| Cc1ccc(NC(=O)c2ccc(F)cc2)cc1S(=O)(=O)N1CCCCCC1 | inconclusive: 40.7% |
| CNC[C@H]1Oc2ccc(NC(=O)C3CCCCC3)cc2CC(=O)N([C@H](C)CO)C[C@@H]1C | inactive: 8.09% and active: 90.2% |
| COc1ccc(NC(=O)N(C)C[C@@H]2OCCCC[C@H](C)Oc3ccc(NC(=O)Nc4ccc5c(c4)OCO5)cc3C(=O)N([C@@H](C)CO)C[C@@H]2C)cc1 | inconclusive: 32.9% |
| Cc1noc(C)c1S(=O)(=O)N(C)C[C@@H]1OCCCC[C@H](C)Oc2ccc(NC(=O)NC(C)C)cc2C(=O)N([C@H](C)CO)C[C@@H]1C | active: 51.8% |

Grouped by structure: the entries above with a tert-butyl group.

| Compound | CPE inhibition |
| --- | --- |
| CC[C@H](C)[C@@H](CNC)NC[C@@H](Cc1ccc(O)cc1)NCC(C)(C)C | inconclusive: 53.4% |
| CC(C)(C)c1ccc(C(=O)N/C(=C\c2ccco2)C(=O)Nc2ccccc2C(=O)O)cc1 | inconclusive: 31.7% |

(cont.)

| Compound | CPE inhibition |
| --- | --- |
| Cc1noc(C)c1S(=O)(=O)N(C)C[C@@H]1Oc2c(NC(=O)c3ccc(-c4nccs4)cc3)cccc2C(=O)N([C@@H](C)CO)C[C@H]1C | inconclusive: 29.4% |
| COc1ccc(S(=O)(=O)Nc2ccc3c(c2)C(=O)N([C@@H](C)CO)C[C@H](C)[C@@H](CN(C)S(=O)(=O)c2ccc(C)cc2)OCCCC[C@H](C)O3)cc1 | inconclusive: 52.7% |
| Cc1cc(=O)c2cc(C(=O)c3ccccc3)ccc2[nH]1 | inconclusive: 20.6% |
| O=C(NCc1ccco1)C1CCCN(c2ncnc3c2nc2n3CCCCC2)C1 (configuration not stated) | active: 25.3% |
| CCOC(=O)c1ccc(NC(=O)C2CCCN(S(=O)(=O)c3cnc[nH]3)C2)cc1 (configuration not stated) | inconclusive: 23.2% |
| Cc1noc(C)c1S(=O)(=O)N(C)C[C@@H]1Oc2ccc(NS(=O)(=O)c3ccc(Cl)cc3)cc2CC(=O)N([C@@H](C)CO)C[C@@H]1C | inconclusive: 28.5% |
| C[C@@H]1CN([C@@H](C)CO)C(=O)c2cc(NC(=O)Nc3ccc(F)cc3)ccc2O[C@@H]1CN(C)Cc1ccc2c(c1)OCO2 | inconclusive: 28.8% |
| CN(CC(=O)NCc1ccc(Cl)cc1)S(=O)(=O)c1cccc2cccnc12 | inconclusive: 41.7% |
| COc1ccc2c3c([nH]c2c1)[C@@H](CO)N(Cc1ccncc1)CC31CN(C(=O)CN(C)C)C1 | inconclusive: 58% |
| CCC(=O)Nc1ccc2c(c1)C(=O)N(C)[C@H]1CC[C@@H](CC(=O)N3CCCCC3)O[C@H]1CO2 | inconclusive: 24.9% |
| CC(C)NC(=O)N1[C@H](CO)[C@@H](c2ccccc2)[C@H]1CNC(=O)CN(C)C | inconclusive: 58.2% |
| O=C(Nc1ccc(F)cc1)C(c1cccc(F)c1)N1CCN(C(=O)c2ccco2)CC1 (configuration not stated) | active: 47.2% |
| CN1C(=O)c2cc(NC(=O)NCc3ccccc3)ccc2OC[C@H]2O[C@H](CC(=O)NCC3CCCCC3)CC[C@H]21 | active: 98.2% |
| CN1c2ccc(-c3ccc(C#N)cc3)cc2[C@@H]2[C@@H](CCN2C(=O)c2cccc(F)c2)[C@H]1CO | inactive: 3.98% |
| CO[C@H]1CN(C)C(=O)c2cc(NC(=O)CC(F)(F)F)ccc2OC[C@H](C)N(C(=O)C2CCOCC2)C[C@@H]1C | active: 26.8% |
| CC(C)(C)OC(=O)NCc1ccc(CNC(=O)c2nc[nH]c2C(=O)N2CCc3ccccc3C2)cc1 | active: 59.9% |
| O=C(COC(=O)Cc1cccc(C(F)(F)F)c1)NCC1CCCO1 (configuration not stated) | inconclusive: 23.4% |
| COc1ccc(S(=O)(=O)N[C@@H]2C=C[C@H](CC(=O)O)O[C@H]2CO)cc1 | inactive: -2.81% |
| O=C1CC(Cc2ccc(Br)cc2)C(=O)N1c1ccccc1 (configuration not stated) | inconclusive: 38.7% |
| C[C@H](CO)N1C[C@H](C)[C@@H](CN(C)Cc2ccc(Oc3ccccc3)cc2)Oc2ccc(NC(=O)Nc3ccc(C(F)(F)F)cc3)cc2C1=O | inconclusive: 22% |
| COc1ccccc1C(CNC(=O)C(C)Oc1ccc(Br)cc1)N1CCCC1 (configuration not stated) | inconclusive: 38.9% |
